Measurements from PubChem BioAssay AID1487 (National Center for Advancing Translational Sciences (NCATS), 2009).
Some of the results follow. The main result of the screen is listed elsewhere. These columns were measured beside it and carry no call. Most of these compounds were active or inconclusive in the main read-out, so they are no random draw. The note in brackets gives the kind of curve behind each potency; many fits are weak.

Test: qHTS Assay for Modulators of Lamin A Splicing
Settings: HeLa LMNA splicing GFP/RFP minigene ratio, 48 h
Summary of the method: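 S3 HeLa cells stably expressing lamin A-EGFP splicing minigene plus DsRed2, 600 cells/well, 48 h compound exposure at 37C. Laser-scanning cytometry; analysed as GFP (500-530 nm)/RFP (575-640 nm) total intensity ratio; 0.5% DMSO vehicle.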

[1] = measured here: RFP viability control channel
[2] = measured here: GFP splicing reporter channel

Row | SMILES | AC50 [1] | AC50 [2]
1 | COc1ccccc1-c1nc(CNC(=O)NC2CCCCC2)c(C)o1 | 0.126 µM [rising, full curve, poor fit] | 
2 | CC(C)C[C@H](NC(=O)[C@@H](O)[C@H](N)Cc1ccccc1)C(=O)O |  | 1 µM [rising, full curve, poor fit]
3 | CC(Oc1ccc(-c2ccccc2)c(F)c1)c1ccn(S(=O)(=O)c2ccc(F)cc2)n1 (stereo not given) | 22.4 µM [rising, single point] | 
4 | Cc1cc(C)c(C(=O)/C=C/C=C/c2ccccc2)c(=O)[nH]1 | 11.2 µM [rising, partial curve, poor fit] | 
5 | Nc1nn(S(=O)(=O)c2cccc3nsnc23)cc1-c1ccc(Br)cc1 | 17.8 µM [rising, single point] | 35.5 µM [rising, single point]
6 | CC(=O)c1c(C(C)=O)c(C)n(Cc2ccccc2)c1C | 35.5 µM [rising, single point] | 
7 | CS(=O)(=O)c1ccc2nc(NC(=O)c3cccs3)sc2c1 | 10 µM [rising, partial curve, poor fit] | 
8 | COCCn1c(C)cc(O)c(C(c2ccccc2)N2CCN(c3ccccc3F)CC2)c1=O (stereo not given) | 1.58 µM [rising, partial curve] | 
9 | CC(=O)NCCn1c(SCc2cc(=O)n3cc(Cl)ccc3n2)nc2ccccc2c1=O |  | 3.55 µM [falling, single point]
10 | COc1ccc(N2CCN(C(=O)CCNS(=O)(=O)c3ccc(Br)s3)CC2)cc1 | 35.5 µM [rising, single point] | 
11 | O=C(CCCSc1nc2ccccc2c(=O)[nH]1)c1ccc(F)cc1 | 0.224 µM [rising, full curve, poor fit] | 
12 | CCN(CC)S(=O)(=O)c1ccc(C)c(NC(=O)/C=C/c2cccs2)c1 | 31.6 µM [rising, single point] | 15.8 µM [rising, single point]
13 | CCS(=O)(=O)c1ccc(C(=O)N2CCN(c3nc4c(OC)ccc(C)c4s3)CC2)cc1 |  | 14.1 µM [falling, partial curve, poor fit]
14 | CCN(CC(=O)NC1CCS(=O)(=O)C1)c1nc(-c2ccccc2)nc2ccccc12 (stereo not given) | 12.6 µM [rising, single point] | 14.1 µM [rising, single point]
15 | Cc1ccc(C(=O)NC(=S)Nc2ccccc2N2CCCC2)cc1[N+](=O)[O-] | 2.51 µM [rising, full curve] | 
16 | CCC(/C=N/NC(=O)c1ccccc1F)CC | 6.31 µM [falling, full curve, poor fit] | 7.08 µM [falling, full curve, poor fit]
17 | O=C1C2CCCN2C(c2cccs2)N1c1ccc(F)cc1 (stereo not given) | 0.282 µM [rising, partial curve, poor fit] | 0.355 µM [rising, full curve, poor fit]
18 | COC(=O)c1sccc1NC(=O)Cc1ccc(OC)c(OC)c1 | 14.1 µM [rising, partial curve] | 
19 | CCOC(=O)N1CCc2c(sc(NCc3cc(OC)ccc3OC)c2C(=O)Nc2cc(OC)ccc2OC)C1 | 1.41 µM [falling, full curve, poor fit] | 

Row | SMILES | AC50 [1] | AC50 [2]
20 | COc1cc2c(cc1NC(=O)c1ccc(C(C)(C)C)cc1)CCCC2 | 11.2 µM [rising, partial curve] | 6.31 µM [rising, partial curve]
21 | CCn1c(CCNC(=O)c2ccc(OC)cc2)nnc1SCc1ccc(Cl)c(Cl)c1 | 25.1 µM [rising, partial curve] | 
22 | OC(COCCOc1ccc(Br)cc1)CN1CCN(Cc2ccccc2)CC1 (stereo not given) |  | 14.1 µM [rising, single point]
23 | COC(=O)Cc1c[nH]c2cccc(OCC(O)CN(Cc3ccc([N+](=O)[O-])cc3)C(C)(C)C)c12 (stereo not given) | 35.5 µM [falling, single point] | 35.5 µM [falling, single point]
24 | CCOC(=O)c1cc(-c2ccccc2)sc1NC(=O)C(C)OC(=O)c1cccc(S(=O)(=O)N(C)C)c1 (stereo not given) | 0.00316 µM [falling, full curve, poor fit] | 
25 | c1ccc2c(CNc3ccc(CNc4ncn[nH]4)cc3)cccc2c1 | 20 µM [rising, single point] | 
26 | COc1cc(C2Nc3ccc4ncccc4c3C3=C2C(=O)CCC3)ccc1O (stereo not given) | 12.6 µM [rising, single point] | 
27 | COc1cc2c(cc1OC)-c1cc3ccc(OC)c(OC)c3c[n+]1CC2 | 0.501 µM [falling, full curve, poor fit] | 0.316 µM [falling, full curve, poor fit]
28 | COc1cccc(-c2ccc3ncnc(NC4CC4)c3c2)c1 | 15.8 µM [falling, partial curve, poor fit] | 14.1 µM [falling, partial curve]
29 | COC(=O)[C@H]1[C@H]2C[C@@H]3c4[nH]c5cc(OC)ccc5c4CCN3C[C@H]2C[C@@H](OC(=O)c2cc(OC)c(OC)c(OC)c2)[C@@H]1OC | 17.8 µM [falling, partial curve] | 10 µM [falling, partial curve]
30 | NC(=O)c1ccc(N=Cc2ccc([N+](=O)[O-])s2)cc1 |  | 35.5 µM [falling, single point]
31 | Cn1c(CSCc2ccc(Cl)cc2)nnc1SCC(=O)Nc1nccs1 | 11.2 µM [rising, partial curve, poor fit] | 
32 | CN(C)c1ccc(/C=N/NC(=O)c2ccc(Cn3cc(Br)cn3)o2)cc1 |  | 35.5 µM [rising, partial curve, poor fit]
33 | CCCCCn1c(=O)[nH]c2cc(C(=O)NCCCN(C)Cc3ccccc3)ccc2c1=O |  | 1 µM [falling, full curve]
34 | CN1CCN(c2ccc(CNS(=O)(=O)c3ccccc3)cc2)CC1 |  | 0.0562 µM [rising, full curve, poor fit]
35 | COc1ccc(N2CCN(c3c(S(=O)(=O)c4ccccc4)cnc4ccc(OC)cc34)CC2)cc1 | 35.5 µM [rising, single point] | 
36 | COC(=O)c1ccccc1OCCCOc1ccc(C)cc1OC |  | 1.26 µM [falling, partial curve]
37 | O=C(Nc1ccc(S(=O)(=O)NC2CCCCC2)cc1)c1ccc(Br)o1 | 20 µM [rising, partial curve, poor fit] | 
38 | CCOC(=O)Cc1csc(/C(=N/O)C(N)=O)n1 |  | 22.4 µM [rising, single point]

Row | SMILES | AC50 [1] | AC50 [2]
39 | O=C(CC12CC3CC(CC(C3)C1)C2)NC(Cc1ccccc1)C(=O)O (stereo not given) | 0.00447 µM [falling, full curve, poor fit] | 
40 | Cc1cc(C(C)(C)C)cc(C)c1COC(=O)C1CCC(=O)N1 (stereo not given) | 35.5 µM [rising, single point] | 
41 | COc1cc(CNC(=O)c2ccc3c(c2)N(C)C(=O)C2CCCCN32)cc(OC)c1OC (stereo not given) |  | 0.00355 µM [falling, full curve, poor fit]
42 | Cc1ccccc1S(=O)(=O)c1c(C)cc(C)n(C(C)C)c1=O | 31.6 µM [rising, single point] | 35.5 µM [rising, single point]
43 | O=C(CSc1ncnc2[nH]ncc12)Nc1nc(-c2ccc(F)c(F)c2)cs1 |  | 35.5 µM [falling, single point]
44 | Cc1nc2sc(C(c3ccco3)N3CCC(Cc4ccccc4)CC3)c(O)n2n1 (stereo not given) |  | 14.1 µM [rising, single point]
45 | Cc1ccc(S(=O)(=O)N(C)C(=O)NC(=O)NS(=O)(=O)c2ccccc2)cc1 | 0.282 µM [rising, full curve, poor fit] | 0.0224 µM [rising, full curve, poor fit]
46 | COc1ccccc1-c1nnc(SCC(=O)Nc2ccccc2F)o1 | 10 µM [falling, partial curve, poor fit] | 
47 | Cc1ccc(C(=O)N2CCN(S(=O)(=O)c3ccccc3)CC2)cc1 | 0.0355 µM [falling, full curve, poor fit] | 
48 | CCCCC[C@H](O)/C=C/[C@H]1C=CC(=O)[C@@H]1C/C=C\CCCC(=O)O | 0.00794 µM [falling, full curve, poor fit] | 0.0562 µM [falling, full curve, poor fit]
49 | CS/C(=N\S(=O)(=O)c1cccs1)Nc1ccc(Cl)cc1 | 35.5 µM [rising, single point] | 
50 | COc1ccc(OCCNc2cc(Cl)ccc2[N+](=O)[O-])cc1 | 2 µM [rising, partial curve] | 
51 | COc1ccc(NC(=O)C2CCN(Cc3cnn(-c4ccccc4)c3-n3cccc3)CC2)cc1OC | 15.8 µM [rising, single point] | 10 µM [rising, partial curve, poor fit]
52 | CC(=O)Nc1nc2ccccc2n1Cc1ccccc1C | 35.5 µM [rising, single point] | 
53 | Cc1nc2cc(NC(=O)c3ccc(N4C(=O)CCC4=O)cc3)ccc2s1 | 6.31 µM [falling, partial curve] | 
54 | Nc1c(C(=O)Nc2nc3ccccc3s2)sc2nc(-c3cccs3)ccc12 |  | 1.58 µM [rising, full curve]
55 | COc1cc(OC)c2c(C)c(Cl)c(=O)oc2c1 | 0.00891 µM [falling, full curve, poor fit] | 
56 | O=c1cc(NS(=O)(=O)c2ccccc2)nc(SCc2ccccc2Cl)[nH]1 | 10 µM [rising, partial curve, poor fit] | 

Pulled by compound from above:
Row | SMILES | AC50 [1] | AC50 [2]
16 | CCC(/C=N/NC(=O)c1ccccc1F)CC | 6.31 µM [falling, full curve, poor fit] | 7.08 µM [falling, full curve, poor fit]
23 | COC(=O)Cc1c[nH]c2cccc(OCC(O)CN(Cc3ccc([N+](=O)[O-])cc3)C(C)(C)C)c12 (stereo not given) | 35.5 µM [falling, single point] | 35.5 µM [falling, single point]
